Measured values taken from publication PMC8782881.
These are yes or no findings as the source states them, for the method shown. Binding seen in cells or lysates may run through a third protein. Some results given as binding are weak or reduced against the parent protein; the word gives no strength. Tags and fused reporters may be left off the sequences shown.

Key:
[1] = biological target: PDGF receptor β (PDGFRβ), wild-type (UniProt P09619); assay: co-IP; PDGFRβ and Flag-tagged USP17 isoforms co-overexpressed in HEK293T, serum-starved, stimulated with PDGF-BB (20 ng/ml) for 10 min; PDGFRβ immunoprecipitated, eluates probed with Flag antibody
[2] = biological target: PDGF receptor β (PDGFRβ), wild-type (UniProt P09619); assay: co-IP; Flag-HA-tagged DUB overexpressed together with PDGFRβ in 293T cells, starved and stimulated with PDGF-BB for indicated times; proteins immunoprecipitated 'as indicated' in the figure, eluates blotted for PDGFRβ and USP4 or USP17 (DUB3); mild lysis buffer (1% Triton X-100, 20 mM Tris, 150 mM NaCl, pH 7.5)

Row | binding [1] | binding [2] | Binder
1 | binds |  | full-length Flag-tagged USP17L22 (enzyme, UniProt D6RA61 1-530) MEDDSLYLGGEWQFNHFSKLTSSRPDAAFAEIQRTSLPEKSPLSCETRVDLCDDLAPVARQLAPREKLPLSSRRPAAVGAGLQNMGNTCYVNASLQCLTYTPPLANYMLSREHSQTCHRHKGCMLCTMQAHITRALHNPGHVIQPSQALAAGFHRGKQEDAHEFLMFTVDAMKKACLPGHKQVDHHSKDTTLIHQIFGGYWRSQIKCLHCHGISDTFDPYLDIALDIQAAQSVQQALEQLVKPEELNGENAYHCGVCLQRAPASKTLTLHTSAKVLILVLKRFSDVTGNKIAKNVQYPECLDMQPYMSQQNTGPLVYVLYAVLVHAGWSCHNGHYFSYVKAQEGQWYKMDDAEVTASSITSVLSQQAYVLFYIQKSEWERHSESVSRGREPRALGAEDTDRRATQGELKRDHPCLQAPELDEHLVERATQESTLDHWKFLQEQNKTKPEFNVRKVEGTLPPDVLVIHQSKYKCGMKNHHPEQQSSLLKLSSTTPTHQESMNTGTLASLRGRARRSKGKNKHSKRALLVCQ
2 | binds |  | full-length Flag-tagged USP17L20 isoform (USP17L22 with K488N and Q310P) (enzyme, UniProt D6RA61 1-530) MEDDSLYLGGEWQFNHFSKLTSSRPDAAFAEIQRTSLPEKSPLSCETRVDLCDDLAPVARQLAPREKLPLSSRRPAAVGAGLQNMGNTCYVNASLQCLTYTPPLANYMLSREHSQTCHRHKGCMLCTMQAHITRALHNPGHVIQPSQALAAGFHRGKQEDAHEFLMFTVDAMKKACLPGHKQVDHHSKDTTLIHQIFGGYWRSQIKCLHCHGISDTFDPYLDIALDIQAAQSVQQALEQLVKPEELNGENAYHCGVCLQRAPASKTLTLHTSAKVLILVLKRFSDVTGNKIAKNVQYPECLDMQPYMSQPNTGPLVYVLYAVLVHAGWSCHNGHYFSYVKAQEGQWYKMDDAEVTASSITSVLSQQAYVLFYIQKSEWERHSESVSRGREPRALGAEDTDRRATQGELKRDHPCLQAPELDEHLVERATQESTLDHWKFLQEQNKTKPEFNVRKVEGTLPPDVLVIHQSKYKCGMKNHHPEQQSSLLNLSSTTPTHQESMNTGTLASLRGRARRSKGKNKHSKRALLVCQ
3 | binds |  | full-length Flag-tagged USP17L11 isoform (USP17L22 with K488N and Q310T) (enzyme, UniProt D6RA61 1-530) MEDDSLYLGGEWQFNHFSKLTSSRPDAAFAEIQRTSLPEKSPLSCETRVDLCDDLAPVARQLAPREKLPLSSRRPAAVGAGLQNMGNTCYVNASLQCLTYTPPLANYMLSREHSQTCHRHKGCMLCTMQAHITRALHNPGHVIQPSQALAAGFHRGKQEDAHEFLMFTVDAMKKACLPGHKQVDHHSKDTTLIHQIFGGYWRSQIKCLHCHGISDTFDPYLDIALDIQAAQSVQQALEQLVKPEELNGENAYHCGVCLQRAPASKTLTLHTSAKVLILVLKRFSDVTGNKIAKNVQYPECLDMQPYMSQTNTGPLVYVLYAVLVHAGWSCHNGHYFSYVKAQEGQWYKMDDAEVTASSITSVLSQQAYVLFYIQKSEWERHSESVSRGREPRALGAEDTDRRATQGELKRDHPCLQAPELDEHLVERATQESTLDHWKFLQEQNKTKPEFNVRKVEGTLPPDVLVIHQSKYKCGMKNHHPEQQSSLLNLSSTTPTHQESMNTGTLASLRGRARRSKGKNKHSKRALLVCQ
4 |  | binds | Flag-HA-tagged USP4 (enzyme, UniProt Q13107 1-963) MAEGGGCRERPDAETQKSELGPLMRTTLQRGAQWYLIDSRWFKQWKKYVGFDSWDMYNVGEHNLFPGPIDNSGLFSDPESQTLKEHLIDELDYVLVPTEAWNKLLNWYGCVEGQQPIVRKVVEHGLFVKHCKVEVYLLELKLCENSDPTNVLSCHFSKADTIATIEKEMRKLFNIPAERETRLWNKYMSNTYEQLSKLDNTVQDAGLYQGQVLVIEPQNEDGTWPRQTLQSKSSTAPSRNFTTSPKSSASPYSSVSASLIANGDSTSTCGMHSSGVSRGGSGFSASYNCQEPPSSHIQPGLCGLGNLGNTCFMNSALQCLSNTAPLTDYFLKDEYEAEINRDNPLGMKGEIAEAYAELIKQMWSGRDAHVAPRMFKTQVGRFAPQFSGYQQQDSQELLAFLLDGLHEDLNRVKKKPYLELKDANGRPDAVVAKEAWENHRLRNDSVIVDTFHGLFKSTLVCPECAKVSVTFDPFCYLTLPLPLKKDRVMEVFLVPADPHCRPTQYRVTVPLMGAVSDLCEALSRLSGIAAENMVVADVYNHRFHKIFQMDEGLNHIMPRDDIFVYEVCSTSVDGSECVTLPVYFRERKSRPSSTSSASALYGQPLLLSVPKHKLTLESLYQAVCDRISRYVKQPLPDEFGSSPLEPGACNGSRNSCEGEDEEEMEHQEEGKEQLSETEGSGEDEPGNDPSETTQKKIKGQPCPKRLFTFSLVNSYGTADINSLAADGKLLKLNSRSTLAMDWDSETRRLYYDEQESEAYEKHVSMLQPQKKKKTTVALRDCIELFTTMETLGEHDPWYCPNCKKHQQATKKFDLWSLPKILVVHLKRFSYNRYWRDKLDTVVEFPIRGLNMSEFVCNLSARPYVYDLIAVSNHYGAMGVGHYTAYAKNKLNGKWYYFDDSNVSLASEDQIVTKAAYVLFYQRRDDEFYKTPSLSSSGSSDGGTRPSSSQQGFGDDEACSMDTN
